Data as given in article PMC5556019, “Targeting Apolipoprotein E/Amyloid β Binding by Peptoid CPO_Aβ17-21 P Ameliorates Alzheimer’s Disease Related Pathology and Cognitive Decline” (Scientific Reports, 2017).
Numbered stars: 1 amine (or outer) side, 2 acyl side, 3 side chain; on linkers, the order of the positions; unused ones are H or OH. Bridge positions count the residues as written; N and C are the ends. Square brackets hold non-standard residues; d marks the D form. Peptide text beside a SMILES is read from it. ξ: configuration not given here. N(CH2CH2CO)Gly = O=C(CN(CCC(=O)[*:3])[*:1])[*:2]; Nphe = O=C(O)CNCc1ccccc1; Nleu = CC(C)CNCC(=O)O; ξP = O=C(O)C1CCCN1; Sar = CNCC(=O)O

System: APP/PS1 Tg mice
Experiment: Sensorimotor tests (rotarod, traverse beam, locomotor activity)
Assay type: in vivo
Settings: 0.2 mg per mouse i.p. twice weekly for 4 months; p > 0.05

CC(C)CN1CC(=O)N2CCCC2C(=O)N(Cc2ccccc2)CC(=O)N(Cc2ccccc2)CC(=O)N(C)CC(=O)N(CC(N)=O)CCC1=O (stereo not drawn) [CPO_Aβ17-21 P] ([Nleu][ξP][Nphe][Nphe][Sar][N(CH2CH2CO)Gly]-NH2; lactam N-6)
no significant differences: Open field: distance traveled, resting time, maximum velocity, average speed, treated versus vehicle | Rotarod, treated versus vehicle | Traverse beam, treated versus vehicle
